This is an account of results in publication PMC12772958.

Chains of the proteins cited; added tags and fusions are not shown. Lines headed by an entry give the natural chain unless they say otherwise; changes in a name come on top. Residues count along the entry.
UniProt O00160: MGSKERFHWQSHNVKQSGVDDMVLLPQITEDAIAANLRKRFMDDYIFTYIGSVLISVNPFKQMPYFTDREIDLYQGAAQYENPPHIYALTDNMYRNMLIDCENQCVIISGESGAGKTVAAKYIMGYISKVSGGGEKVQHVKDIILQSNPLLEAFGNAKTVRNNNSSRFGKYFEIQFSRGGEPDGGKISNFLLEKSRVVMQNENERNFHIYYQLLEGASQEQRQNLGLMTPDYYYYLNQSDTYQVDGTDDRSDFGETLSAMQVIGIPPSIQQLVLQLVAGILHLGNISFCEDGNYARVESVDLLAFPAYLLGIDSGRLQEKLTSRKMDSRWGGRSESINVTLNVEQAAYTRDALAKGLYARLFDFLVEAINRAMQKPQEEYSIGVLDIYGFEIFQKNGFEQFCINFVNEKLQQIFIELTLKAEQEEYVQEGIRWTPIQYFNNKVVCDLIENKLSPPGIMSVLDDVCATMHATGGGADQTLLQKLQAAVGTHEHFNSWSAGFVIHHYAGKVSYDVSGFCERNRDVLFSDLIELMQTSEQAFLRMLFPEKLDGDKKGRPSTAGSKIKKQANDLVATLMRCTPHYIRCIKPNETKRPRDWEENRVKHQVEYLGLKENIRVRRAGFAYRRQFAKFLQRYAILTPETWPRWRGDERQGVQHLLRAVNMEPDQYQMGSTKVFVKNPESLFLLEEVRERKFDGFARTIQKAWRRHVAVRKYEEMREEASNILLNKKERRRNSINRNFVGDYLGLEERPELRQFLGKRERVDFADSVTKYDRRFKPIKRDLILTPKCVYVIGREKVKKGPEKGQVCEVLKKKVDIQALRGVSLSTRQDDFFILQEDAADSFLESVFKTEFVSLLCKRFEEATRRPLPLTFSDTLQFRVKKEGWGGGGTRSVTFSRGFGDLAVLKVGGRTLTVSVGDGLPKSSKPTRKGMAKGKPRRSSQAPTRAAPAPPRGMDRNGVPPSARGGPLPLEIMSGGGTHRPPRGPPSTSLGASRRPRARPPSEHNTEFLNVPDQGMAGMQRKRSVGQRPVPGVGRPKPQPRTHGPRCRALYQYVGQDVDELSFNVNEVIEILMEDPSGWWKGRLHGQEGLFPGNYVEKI
UniProt Q96B97: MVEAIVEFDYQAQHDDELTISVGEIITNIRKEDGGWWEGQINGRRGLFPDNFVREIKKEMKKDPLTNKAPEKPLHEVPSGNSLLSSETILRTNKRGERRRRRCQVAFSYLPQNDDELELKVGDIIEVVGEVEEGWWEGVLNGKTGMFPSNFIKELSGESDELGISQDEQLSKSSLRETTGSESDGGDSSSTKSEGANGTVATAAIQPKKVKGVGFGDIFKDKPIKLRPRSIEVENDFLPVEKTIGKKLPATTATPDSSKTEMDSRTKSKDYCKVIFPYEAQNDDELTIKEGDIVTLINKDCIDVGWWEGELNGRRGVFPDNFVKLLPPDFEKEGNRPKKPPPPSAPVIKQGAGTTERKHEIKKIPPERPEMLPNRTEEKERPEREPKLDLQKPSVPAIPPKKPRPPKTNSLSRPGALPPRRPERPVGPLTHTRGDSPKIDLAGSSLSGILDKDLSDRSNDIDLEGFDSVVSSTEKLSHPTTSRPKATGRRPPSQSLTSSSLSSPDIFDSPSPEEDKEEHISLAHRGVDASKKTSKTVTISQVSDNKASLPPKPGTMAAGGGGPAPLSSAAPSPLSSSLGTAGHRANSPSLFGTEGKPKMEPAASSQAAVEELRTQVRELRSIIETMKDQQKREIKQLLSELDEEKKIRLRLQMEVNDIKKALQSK
UniProt Q9ULH1, residues 589-1129: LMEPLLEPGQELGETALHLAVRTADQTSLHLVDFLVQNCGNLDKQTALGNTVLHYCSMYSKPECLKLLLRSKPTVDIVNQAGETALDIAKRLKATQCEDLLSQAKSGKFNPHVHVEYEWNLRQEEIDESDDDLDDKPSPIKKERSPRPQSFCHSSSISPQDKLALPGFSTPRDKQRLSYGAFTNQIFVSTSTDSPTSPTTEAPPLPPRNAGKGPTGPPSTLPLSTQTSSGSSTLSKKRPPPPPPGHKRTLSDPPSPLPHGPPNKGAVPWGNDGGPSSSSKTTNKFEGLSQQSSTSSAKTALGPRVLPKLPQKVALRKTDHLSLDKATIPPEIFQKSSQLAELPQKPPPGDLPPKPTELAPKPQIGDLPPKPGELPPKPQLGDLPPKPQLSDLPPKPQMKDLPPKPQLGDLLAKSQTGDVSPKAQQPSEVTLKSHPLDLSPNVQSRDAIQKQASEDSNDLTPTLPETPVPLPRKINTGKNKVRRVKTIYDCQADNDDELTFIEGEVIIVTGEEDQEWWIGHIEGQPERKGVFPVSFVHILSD

No constants are given. Whether binding was seen depends on the method and setting. In cells and extracts the contact can be indirect. Where a sequence is shown, tags or fusion partners need not be part of it.

B1: Myc–SH3BP2 (protein, UniProt P78314 1-561)
chain: MAAEEMHWPVPMKAIGAQNLLTMPGGVAKAGYLHKKGGTQLQLLKWPLRFVIIHKRCVYYFKSSTSASPQGAFSLSGYNRVMRAAEETTSNNVFPFKIIHISKKHRTWFFSASSEEERKSWMALLRREIGHFHEKKDLPLDTSDSSSDTDSFYGAVERPVDISLSPYPTDNEDYEHDDEDDSYLEPDSPEPGRLEDALMHPPAYPPPPVPTPRKPAFSDMPRAHSFTSKGPGPLLPPPPPKHGLPDVGLAAEDSKRDPLCPRRAEPCPRVPATPRRMSDPPLSTMPTAPGLRKPPCFRESASPSPEPWTPGHGACSTSSAAIMATATSRNCDKLKSFHLSPRGPPTSEPPPVPANKPKFLKIAEEDPPREAAMPGLFVPPVAPRPPALKLPVPEAMARPAVLPRPEKPQLPHLQRSPPDGQSFRSFSFEKPRQPSQADTGGDDSDEDYEKVPLPNSVFVNTTESCEVERLFKATSPRGEPQDGLYCIRNSSTKSGKVLVVWDETSNKVRNYRIFEKDSKFYLEGEVLFVSVGSMVEHYHTHVLPSHQSLLLRHPYGYTGPR

This assay has as its target GFP–MYO1FΔSH3 (human) (UniProt O00160). Briefly: co-IP; anti-GFP antibodies and protein A Sepharose from RPE cells stably expressing GFP–MYO1F or GFP–MYO1FΔSH3 and transiently transfected with Myc-tagged partners; blot with anti-Myc; lysis in 50 mM Tris-HCl pH 7.4, 100 mM NaCl, 1% NP-40, 5 mM MgCl2, 5 mM ATP; also after siRNA knockdown of SH3KBP1 or ASAP1.
For Myc–SH3KBP1 (from UniProt Q96B97 1-665), the binding entry was “no binding”.
For the molecule “Myc–ASAP1-3′ (amino acids 589–1129) (from UniProt Q9ULH1 589-1129) (domain or fragment)”, the binding result is listed as “no binding”.
Then B1, with “no binding”.
